Source: the supplement of paper PMC10849652
This is one part of the list.

Chains of the proteins cited; added tags and fusions are not shown. Lines headed by an entry give the natural chain unless they say otherwise; changes in a name come on top.
UniProt O00231, whole entry, looked up: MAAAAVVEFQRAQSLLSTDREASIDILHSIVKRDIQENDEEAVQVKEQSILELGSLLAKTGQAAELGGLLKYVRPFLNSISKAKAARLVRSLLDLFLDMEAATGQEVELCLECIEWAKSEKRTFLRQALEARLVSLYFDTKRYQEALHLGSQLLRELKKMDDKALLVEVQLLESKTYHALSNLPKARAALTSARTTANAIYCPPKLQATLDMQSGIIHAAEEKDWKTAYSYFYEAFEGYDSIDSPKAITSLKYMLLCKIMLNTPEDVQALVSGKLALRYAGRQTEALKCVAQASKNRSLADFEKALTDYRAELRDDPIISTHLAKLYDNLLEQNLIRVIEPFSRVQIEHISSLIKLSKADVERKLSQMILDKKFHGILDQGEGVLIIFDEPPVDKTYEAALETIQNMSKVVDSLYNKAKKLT
UniProt Q7Z7A4: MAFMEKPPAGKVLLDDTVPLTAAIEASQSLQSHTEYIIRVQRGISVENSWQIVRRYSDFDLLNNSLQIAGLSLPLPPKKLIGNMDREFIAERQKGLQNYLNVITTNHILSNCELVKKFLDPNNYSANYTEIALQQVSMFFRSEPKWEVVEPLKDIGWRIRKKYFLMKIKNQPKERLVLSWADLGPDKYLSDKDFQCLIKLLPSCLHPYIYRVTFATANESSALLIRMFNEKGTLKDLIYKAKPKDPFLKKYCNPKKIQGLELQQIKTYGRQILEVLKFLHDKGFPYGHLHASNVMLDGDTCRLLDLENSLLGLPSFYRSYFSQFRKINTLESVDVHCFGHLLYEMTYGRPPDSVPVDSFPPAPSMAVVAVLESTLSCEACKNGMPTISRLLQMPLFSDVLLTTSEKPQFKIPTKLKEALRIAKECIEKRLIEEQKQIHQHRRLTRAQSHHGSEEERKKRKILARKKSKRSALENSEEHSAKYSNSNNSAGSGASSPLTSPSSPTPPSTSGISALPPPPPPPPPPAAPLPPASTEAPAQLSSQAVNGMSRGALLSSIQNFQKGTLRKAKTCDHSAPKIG
UniProt Q14671: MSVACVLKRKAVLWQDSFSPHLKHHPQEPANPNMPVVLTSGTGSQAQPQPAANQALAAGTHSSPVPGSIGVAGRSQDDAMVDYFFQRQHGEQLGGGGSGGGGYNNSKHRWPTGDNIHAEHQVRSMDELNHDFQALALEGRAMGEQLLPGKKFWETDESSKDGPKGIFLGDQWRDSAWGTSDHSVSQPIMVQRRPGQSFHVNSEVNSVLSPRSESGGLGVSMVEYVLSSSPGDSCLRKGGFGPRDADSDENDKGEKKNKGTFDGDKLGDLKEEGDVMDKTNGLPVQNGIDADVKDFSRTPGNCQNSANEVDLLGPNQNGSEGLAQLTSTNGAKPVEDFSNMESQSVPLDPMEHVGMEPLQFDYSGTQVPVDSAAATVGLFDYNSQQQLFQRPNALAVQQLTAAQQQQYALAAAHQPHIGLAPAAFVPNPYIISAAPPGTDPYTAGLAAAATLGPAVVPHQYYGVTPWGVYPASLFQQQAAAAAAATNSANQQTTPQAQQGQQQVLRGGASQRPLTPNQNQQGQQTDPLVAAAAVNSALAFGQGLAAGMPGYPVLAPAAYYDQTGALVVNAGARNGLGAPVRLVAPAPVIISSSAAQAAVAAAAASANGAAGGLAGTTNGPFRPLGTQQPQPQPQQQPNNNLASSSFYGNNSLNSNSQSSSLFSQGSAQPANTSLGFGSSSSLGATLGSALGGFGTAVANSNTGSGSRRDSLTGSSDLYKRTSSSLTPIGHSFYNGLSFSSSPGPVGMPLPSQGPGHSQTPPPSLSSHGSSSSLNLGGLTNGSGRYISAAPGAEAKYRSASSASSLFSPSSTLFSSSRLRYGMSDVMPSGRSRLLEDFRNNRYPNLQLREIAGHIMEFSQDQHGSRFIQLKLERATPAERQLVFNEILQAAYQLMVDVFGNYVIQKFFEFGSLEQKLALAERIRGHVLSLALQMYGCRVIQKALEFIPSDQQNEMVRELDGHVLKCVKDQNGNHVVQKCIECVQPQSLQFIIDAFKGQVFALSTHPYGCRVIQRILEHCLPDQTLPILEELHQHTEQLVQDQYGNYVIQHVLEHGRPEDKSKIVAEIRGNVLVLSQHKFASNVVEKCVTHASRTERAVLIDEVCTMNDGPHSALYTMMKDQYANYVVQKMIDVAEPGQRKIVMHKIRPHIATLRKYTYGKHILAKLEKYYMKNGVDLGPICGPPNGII
UniProt Q16401: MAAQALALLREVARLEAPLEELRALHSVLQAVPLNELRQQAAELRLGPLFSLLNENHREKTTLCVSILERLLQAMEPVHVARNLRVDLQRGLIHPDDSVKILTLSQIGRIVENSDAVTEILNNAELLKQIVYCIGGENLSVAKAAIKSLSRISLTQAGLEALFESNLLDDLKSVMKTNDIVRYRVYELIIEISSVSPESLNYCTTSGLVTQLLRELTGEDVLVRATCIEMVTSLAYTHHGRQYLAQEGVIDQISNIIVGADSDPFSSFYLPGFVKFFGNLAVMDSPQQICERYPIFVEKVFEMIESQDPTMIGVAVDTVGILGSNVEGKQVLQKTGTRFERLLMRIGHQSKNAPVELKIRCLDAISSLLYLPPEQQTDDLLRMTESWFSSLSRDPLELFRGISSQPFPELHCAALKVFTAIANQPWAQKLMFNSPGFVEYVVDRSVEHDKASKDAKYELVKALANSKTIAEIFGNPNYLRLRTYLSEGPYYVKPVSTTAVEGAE
UniProt P28072: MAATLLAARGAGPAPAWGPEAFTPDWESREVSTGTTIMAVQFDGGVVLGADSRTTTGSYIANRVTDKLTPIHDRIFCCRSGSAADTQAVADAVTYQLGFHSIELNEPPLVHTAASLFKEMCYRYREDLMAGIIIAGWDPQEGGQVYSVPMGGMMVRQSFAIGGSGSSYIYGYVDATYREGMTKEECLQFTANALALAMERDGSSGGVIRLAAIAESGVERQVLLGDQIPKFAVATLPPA
UniProt P11216: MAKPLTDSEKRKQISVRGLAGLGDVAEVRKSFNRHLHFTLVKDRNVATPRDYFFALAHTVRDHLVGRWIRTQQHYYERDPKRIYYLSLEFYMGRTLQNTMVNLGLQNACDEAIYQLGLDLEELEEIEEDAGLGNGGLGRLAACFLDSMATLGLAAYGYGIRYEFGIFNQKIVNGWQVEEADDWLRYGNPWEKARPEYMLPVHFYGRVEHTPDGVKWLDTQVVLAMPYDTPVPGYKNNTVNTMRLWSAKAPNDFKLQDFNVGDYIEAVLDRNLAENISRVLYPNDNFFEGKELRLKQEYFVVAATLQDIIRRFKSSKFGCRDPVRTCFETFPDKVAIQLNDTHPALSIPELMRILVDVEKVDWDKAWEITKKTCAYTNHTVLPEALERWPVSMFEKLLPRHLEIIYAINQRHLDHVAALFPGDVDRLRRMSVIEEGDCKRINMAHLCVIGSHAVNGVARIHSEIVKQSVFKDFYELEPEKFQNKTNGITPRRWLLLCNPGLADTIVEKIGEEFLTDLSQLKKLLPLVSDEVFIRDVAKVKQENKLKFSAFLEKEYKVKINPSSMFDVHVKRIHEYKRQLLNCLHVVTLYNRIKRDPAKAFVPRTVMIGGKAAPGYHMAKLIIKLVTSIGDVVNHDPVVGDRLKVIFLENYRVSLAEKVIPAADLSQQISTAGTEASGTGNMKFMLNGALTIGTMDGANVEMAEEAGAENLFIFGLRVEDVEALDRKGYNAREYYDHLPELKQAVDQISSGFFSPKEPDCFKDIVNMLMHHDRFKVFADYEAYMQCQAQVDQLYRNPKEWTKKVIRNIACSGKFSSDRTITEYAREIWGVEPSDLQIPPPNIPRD
UniProt Q13200: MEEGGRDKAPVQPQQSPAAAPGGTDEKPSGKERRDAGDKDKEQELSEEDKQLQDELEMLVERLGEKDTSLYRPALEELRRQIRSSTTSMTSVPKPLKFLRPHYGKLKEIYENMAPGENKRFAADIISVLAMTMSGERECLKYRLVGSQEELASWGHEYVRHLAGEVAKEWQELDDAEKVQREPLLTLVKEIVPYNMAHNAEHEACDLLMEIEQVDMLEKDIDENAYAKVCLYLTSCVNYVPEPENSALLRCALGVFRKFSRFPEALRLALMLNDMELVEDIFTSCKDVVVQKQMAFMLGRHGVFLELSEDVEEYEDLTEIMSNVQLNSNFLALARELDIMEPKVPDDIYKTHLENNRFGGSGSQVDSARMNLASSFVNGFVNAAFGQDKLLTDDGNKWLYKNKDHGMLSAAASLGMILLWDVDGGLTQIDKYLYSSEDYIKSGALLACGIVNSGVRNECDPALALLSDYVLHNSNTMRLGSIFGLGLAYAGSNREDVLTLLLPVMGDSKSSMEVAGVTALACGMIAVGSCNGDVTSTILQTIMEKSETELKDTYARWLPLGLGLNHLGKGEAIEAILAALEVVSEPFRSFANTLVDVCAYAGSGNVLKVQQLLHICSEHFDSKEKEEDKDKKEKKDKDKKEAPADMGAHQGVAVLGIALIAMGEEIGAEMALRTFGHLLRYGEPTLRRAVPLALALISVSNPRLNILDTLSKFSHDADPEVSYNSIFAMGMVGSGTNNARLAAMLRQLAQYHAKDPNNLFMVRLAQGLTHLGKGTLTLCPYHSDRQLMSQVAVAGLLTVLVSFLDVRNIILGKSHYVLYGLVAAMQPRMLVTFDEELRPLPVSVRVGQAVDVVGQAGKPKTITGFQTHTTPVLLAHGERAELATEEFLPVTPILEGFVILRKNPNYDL
UniProt O95997: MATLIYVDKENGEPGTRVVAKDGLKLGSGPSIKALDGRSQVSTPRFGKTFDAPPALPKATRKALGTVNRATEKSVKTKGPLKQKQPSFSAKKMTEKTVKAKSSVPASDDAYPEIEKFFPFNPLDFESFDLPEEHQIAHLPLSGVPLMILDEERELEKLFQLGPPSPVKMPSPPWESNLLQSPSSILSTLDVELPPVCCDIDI
UniProt P25788: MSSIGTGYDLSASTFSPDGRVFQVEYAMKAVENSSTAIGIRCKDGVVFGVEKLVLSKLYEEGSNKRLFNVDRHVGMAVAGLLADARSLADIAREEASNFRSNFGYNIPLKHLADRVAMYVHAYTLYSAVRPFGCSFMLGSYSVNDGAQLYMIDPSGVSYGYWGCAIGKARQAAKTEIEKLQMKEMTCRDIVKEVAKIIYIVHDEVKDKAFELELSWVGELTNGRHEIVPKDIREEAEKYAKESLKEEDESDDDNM
UniProt P32322: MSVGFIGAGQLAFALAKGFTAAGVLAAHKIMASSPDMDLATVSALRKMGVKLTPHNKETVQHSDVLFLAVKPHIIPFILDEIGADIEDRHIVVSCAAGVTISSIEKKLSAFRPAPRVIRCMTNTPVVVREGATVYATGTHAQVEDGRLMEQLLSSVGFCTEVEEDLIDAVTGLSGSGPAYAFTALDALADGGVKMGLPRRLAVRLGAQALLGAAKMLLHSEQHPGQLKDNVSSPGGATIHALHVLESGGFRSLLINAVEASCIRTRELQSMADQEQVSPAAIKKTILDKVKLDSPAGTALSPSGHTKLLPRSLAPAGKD

Key:
Experiment in all cases: log2 fold change, soluble protein after heating vs DMSO (PISA); higher = thermal stabilisation; K562 cells, 10 uM, 30 min; active = over 0.2 and 3.5 SD of the protein, either way, in both replicates (recomputed)
[1] = compound: CC1=C(C=C(C=C1)NC(=O)C2=CC(=CC=C2)C(C)(C)C#N)NC3=CC4=C(C=C3)N=CN(C4=O)C
In short: (§1)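 K562 cells at 2×10^6 cells/mL were treated with 10 μM compound for 30 min. Aliquots were heated for 3 min across 48°C-58°C, pooled, and extracted in PBS with 0.5% NP-40 at 4°C; soluble protein was the supernatant after 21,000xg for 90 min. Soluble protein was quantified by TMTpro 16plex LC-MS/MS with channel sums equalised, and reported as log2 fold change in thermal stability against DMSO controls, with values from duplicates.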

[2] = compound: CC1=C(C=C(C=C1)NC(=O)C2=CC(=CC=C2)N(C)C)NC(=O)C3=CC=C(C=C3)O
In short: as §1

[3] = compound: CC1=CC=C(C=C1)SC2=C3C=C(SC3=CN=C2)C(=O)N
In short: as §1

[4] = compound: CC1=NC(=CC=C1)C2=C(N=C(N2)C(C)(C)C)C3=CC4=NC=CN=C4C=C3
In short: as §1

[5] = compound: CCCCN(Cc1ccc(C(=O)NO)cc1)C(=O)Nc1ccccc1 [Nexturastat A]
In short: as §1

[6] = compound: CCCS(=O)(=O)Nc1ccc(F)c(C(=O)c2c[nH]c3ncc(-c4ccc(Cl)cc4)cc23)c1F [vemurafenib]
In short: as §1

[7] = compound: CCCS(=O)(=O)Nc1ccc(F)c(C(=O)c2c[nH]c3ncc(Cl)cc23)c1F
In short: as §1

[8] = compound: CCCc1cc(C)[nH]c(=O)c1CNC(=O)c1cc(-c2ccnc(N3CCN(C)CC3)c2)cc2c1cnn2C(C)C
In short: as §1

[9] = compound: CCN(CC)Cc1ccc2cc(COC(=O)Nc3ccc(C(=O)NO)cc3)ccc2c1 [givinostat]
In short: as §1

[10] = compound: CCN(CCCOc1ccc2c(Nc3cc(CC(=O)Nc4cccc(F)c4)[nH]n3)ncnc2c1)CCOP(=O)(O)O [barasertib]
In short: as §1

[11] = compound: CC[C@@H]1C(=O)N(C)c2cnc(Nc3ccc(C(=O)NC4CCN(C)CC4)cc3OC)nc2N1C1CCCC1
In short: as §1

[12] = compound: CC[C@@H]1C(=O)N(C)c2cnc(Nc3ccc(C(=O)N[C@H]4CC[C@H](N5CCN(CC6CC6)CC5)CC4)cc3OC)nc2N1C(C)C [volasertib]
In short: as §1

[13] = compound: CC[C@H](C)N1C=C(C2=C(C=C(C=C21)C3=CN=C(C=C3)N4CCNCC4)C(=O)NCC5=C(C=C(NC5=O)C)C)C
In short: as §1

[14] = compound: CC[C@H](C)[C@@H](C(=O)N[C@@H]([C@@H](C)O)C(=O)N[C@@H](CC(C)C)C(=O)[C@]1(CO1)C)NC(=O)[C@H]([C@@H](C)CC)N(C)C(=O)C [epoxomicin]
In short: as §1

[15] = compound: CCn1cc(-c2ccnc3[nH]c(-c4cccc(CN(C)C)c4)cc23)c(-c2ccc(NC(=O)N(C)C)cc2)n1
In short: as §1

[16] = compound: CN(C)CC(=O)Nc1ccc2[nH]c(=O)c3ccccc3c2c1
In short: as §1

[17] = compound: CN1C2=C(C3=C1C(=O)N(N=C3)CC4=CC(=CC=C4)N)SC(=C2)S(=O)C
In short: as §1

[18] = compound: CN1CCC(CNc2ccc3ncc(-c4cccc(OC(F)(F)F)c4)n3n2)CC1
In short: as §1

[19] = compound: CCn1c(C(=O)N(C2CC2)C2CC2)cc2c3c(ncn3C)c(Nc3cc(C)n(C)n3)nc21
In short: as §1

[20] = compound: CN(CCOC1=CC=C(C=C1)C[C@H]2C(=O)NC(=O)S2)C3=CC=CC=N3 (racemic) [rosiglitazone]
In short: as §1

Target | log2 fold change [1] | log2 fold change [2] | log2 fold change [3] | log2 fold change [4] | log2 fold change [5] | log2 fold change [6] | log2 fold change [7] | log2 fold change [8] | log2 fold change [9] | log2 fold change [10] | log2 fold change [11] | log2 fold change [12] | log2 fold change [13] | log2 fold change [14] | log2 fold change [15] | log2 fold change [16] | log2 fold change [17] | log2 fold change [18] | log2 fold change [19] | log2 fold change [20]
PSMD11 (UniProt O00231) | inactive: 0.048 | inactive: -0.005 | inactive: 0.017 | inactive: -0.006 | inactive: 0.124 | inactive: -0.031 | inactive: 0.058 | inactive: 0.047 | inactive: -0.027 | inactive: -0.056 | inactive: 0.011 | inactive: 0.187 | inactive: 0.036 | inactive: -0.262 | inactive: 0 | inactive: 0 | inactive: 0.018 | inactive: 0.053 | – | –
PXK (UniProt Q7Z7A4) | inactive: 0.017 | inactive: -0.059 | inactive: -0.041 | inactive: 0.011 | inactive: -0.018 | inactive: 0.017 | inactive: 0.071 | inactive: -0.046 | inactive: 0.022 | inactive: 0.002 | inactive: -0.136 | inactive: -0.077 | inactive: 0.04 | inactive: 0.029 | inactive: -0.012 | inactive: 0.027 | inactive: -0.028 | inactive: -0.208 | – | –
PUM1 isoform 3 (UniProt Q14671) | inactive: -0.011 | inactive: 0.01 | inactive: 0.011 | inactive: 0.042 | inactive: 0.06 | inactive: 0.02 | inactive: 0.05 | inactive: 0.002 | inactive: -0.03 | inactive: 0.011 | inactive: -0.075 | active: -0.302 | inactive: 0.036 | inactive: 0.023 | inactive: -0.018 | inactive: 0.015 | inactive: 0.044 | inactive: -0.123 | – | –
PSMD5 (UniProt Q16401) | inactive: -0.009 | inactive: -0.001 | inactive: 0.023 | inactive: 0.027 | inactive: -0.01 | inactive: 0.015 | inactive: 0.047 | inactive: 0.003 | inactive: -0.007 | inactive: 0.027 | inactive: -0.112 | active: -0.225 | inactive: 0.013 | inactive: 0.027 | inactive: -0.026 | inactive: -0.011 | inactive: -0.043 | inactive: -0.038 | – | –
PTDSS1 (UniProt P48651) | inactive: 0.005 | inactive: -0.006 | inactive: 0.08 | inactive: -0.01 | inactive: 0.192 | inactive: -0.055 | inactive: 0.019 | inactive: -0.007 | inactive: 0.072 | inactive: 0.03 | inactive: 0.004 | inactive: 0.009 | inactive: -0.069 | inactive: -0.035 | inactive: 0.124 | inactive: 0 | inactive: 0.177 | inactive: -0.081 | – | –
PSMB6 (UniProt P28072) | inactive: 0.002 | inactive: 0.306 | inactive: -0.036 | inactive: -0.001 | inactive: -0.019 | inactive: -0.038 | inactive: -0.062 | inactive: -0.024 | inactive: -0.025 | inactive: -0.04 | inactive: 0.029 | inactive: 0.195 | inactive: -0.055 | active: -0.241 | inactive: 0.259 | inactive: -0.019 | inactive: 0.053 | inactive: 0.03 | – | –
PYGB (UniProt P11216) | active: -0.284 | inactive: 0.015 | inactive: 0.008 | inactive: 0.005 | inactive: -0.074 | inactive: 0.009 | inactive: -0.023 | inactive: -0.044 | inactive: 0.012 | inactive: 0.001 | inactive: -0.199 | active: -0.572 | inactive: 0.036 | inactive: -0.045 | inactive: 0.023 | inactive: 0.012 | inactive: 0.021 | inactive: -0.071 | – | –
PSMD2 (UniProt Q13200) | inactive: 0.005 | inactive: 0.012 | inactive: -0.025 | inactive: -0.064 | inactive: 0.024 | inactive: -0.091 | inactive: -0.014 | inactive: 0.136 | inactive: -0.048 | inactive: -0.057 | inactive: 0.049 | inactive: 0.089 | inactive: -0.009 | active: -0.365 | inactive: 0.07 | inactive: -0.04 | inactive: 0.021 | inactive: 0.055 | – | –
PTTG1 (UniProt O95997) | inactive: 0.007 | inactive: -0.353 | inactive: 0.02 | inactive: -0.077 | inactive: 0.098 | inactive: -0.081 | inactive: -0.045 | inactive: -0.021 | inactive: 0.068 | inactive: 0.023 | inactive: 0.105 | inactive: 0.124 | inactive: 0.008 | active: 0.293 | inactive: 0.057 | inactive: -0.02 | inactive: 0.008 | inactive: -0.092 | – | –
PSMA3 (UniProt P25788) | inactive: 0.01 | inactive: 0.027 | inactive: -0.025 | inactive: 0.013 | inactive: -0.039 | inactive: -0.001 | inactive: -0.019 | inactive: -0.011 | inactive: -0.011 | inactive: -0.034 | inactive: 0.067 | inactive: 0.134 | inactive: -0.025 | inactive: -0.169 | inactive: 0.002 | inactive: -0.003 | inactive: -0.027 | inactive: 0.046 | – | –
PYCR1 isoform 3 (UniProt P32322) | inactive: 0.083 | inactive: 0.009 | inactive: 0.005 | inactive: 0.081 | inactive: -0.158 | inactive: 0.056 | inactive: -0.006 | – | inactive: -0.037 | inactive: -0.022 | inactive: -0.014 | inactive: 0.062 | inactive: -0.027 | inactive: 0.028 | inactive: -0.073 | inactive: 0.029 | inactive: -0.042 | inactive: 0.098 | inactive: 0.042 | inactive: -0.015

Single records (already shown). Values in the order: log2 fold change [1]	log2 fold change [2]	log2 fold change [3]	log2 fold change [4]	log2 fold change [5]	log2 fold change [6]	log2 fold change [7]	log2 fold change [8]	log2 fold change [9]	log2 fold change [10]	log2 fold change [11]	log2 fold change [12]	log2 fold change [13]	log2 fold change [14]	log2 fold change [15]	log2 fold change [16]	log2 fold change [17]	log2 fold change [18]	log2 fold change [19]	log2 fold change [20]
PTDSS1 (UniProt P48651) is listed as inactive: 0.005	inactive: -0.006	inactive: 0.08	inactive: -0.01	inactive: 0.192	inactive: -0.055	inactive: 0.019	inactive: -0.007	inactive: 0.072	inactive: 0.03	inactive: 0.004	inactive: 0.009	inactive: -0.069	inactive: -0.035	inactive: 0.124	inactive: 0	inactive: 0.177	inactive: -0.081	–	–
PSMD11 (UniProt O00231) is listed as inactive: 0.048	inactive: -0.005	inactive: 0.017	inactive: -0.006	inactive: 0.124	inactive: -0.031	inactive: 0.058	inactive: 0.047	inactive: -0.027	inactive: -0.056	inactive: 0.011	inactive: 0.187	inactive: 0.036	inactive: -0.262	inactive: 0	inactive: 0	inactive: 0.018	inactive: 0.053	–	–
